Source: paper doi:10.1101/2025.09.28.679056

By UniProt entry, the sequences of proteins in these tests, tags left out. Where a name states a change or a piece, a line headed by the entry shows the natural chain unless it says otherwise.
UniProt Q9Z2E4: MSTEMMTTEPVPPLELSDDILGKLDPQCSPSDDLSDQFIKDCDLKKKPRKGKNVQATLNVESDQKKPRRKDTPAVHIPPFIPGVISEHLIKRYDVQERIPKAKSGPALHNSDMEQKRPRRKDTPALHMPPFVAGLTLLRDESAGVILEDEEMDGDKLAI
UniProt O96001: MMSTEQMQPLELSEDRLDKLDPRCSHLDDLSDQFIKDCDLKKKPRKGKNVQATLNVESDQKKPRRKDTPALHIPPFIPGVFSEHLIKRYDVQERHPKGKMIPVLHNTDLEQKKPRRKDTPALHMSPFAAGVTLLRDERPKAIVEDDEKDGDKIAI
UniProt P62137: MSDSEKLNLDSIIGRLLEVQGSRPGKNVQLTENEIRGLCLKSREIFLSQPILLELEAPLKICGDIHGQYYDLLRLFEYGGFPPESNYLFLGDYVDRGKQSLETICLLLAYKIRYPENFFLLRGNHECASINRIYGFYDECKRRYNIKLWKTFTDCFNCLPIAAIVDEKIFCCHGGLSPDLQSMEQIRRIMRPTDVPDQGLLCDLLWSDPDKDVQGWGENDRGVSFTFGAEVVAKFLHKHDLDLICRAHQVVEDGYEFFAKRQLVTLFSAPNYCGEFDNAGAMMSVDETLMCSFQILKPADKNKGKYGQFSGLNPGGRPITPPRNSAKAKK
UniProt P67775: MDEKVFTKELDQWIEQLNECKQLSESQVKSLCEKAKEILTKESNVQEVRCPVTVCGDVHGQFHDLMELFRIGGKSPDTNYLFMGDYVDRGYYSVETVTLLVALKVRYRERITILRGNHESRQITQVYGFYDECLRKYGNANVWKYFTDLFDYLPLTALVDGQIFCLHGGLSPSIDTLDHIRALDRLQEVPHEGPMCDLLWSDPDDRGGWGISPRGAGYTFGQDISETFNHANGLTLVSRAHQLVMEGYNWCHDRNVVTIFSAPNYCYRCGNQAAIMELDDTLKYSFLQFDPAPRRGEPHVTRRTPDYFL

Experiments:
[1] = target: PPP1R17 (in AtT-20 cells) (mouse (endogenous in AtT-20)) (UniProt Q9Z2E4); experiment: co-IP
[2] = target: PPP1R17 (human (endogenous in CD adenoma tissue)) (UniProt O96001); experiment: proximity ligation

binding [1] | binding [2] | Substance
binds weakly |  | PP1-alpha (from UniProt P62137 1-330) (enzyme)
 | binds | PP2Ac (from UniProt P67775) (enzyme)

Results are given in words; binding and its absence hold for the method and conditions named. Binding seen in cells or lysates may run through a third protein. Binding can be weak; no strength is given.
